The record followed here is paper doi:10.1101/2021.12.30.474394.

Sequences of proteins named here, by UniProt entry; tags and fusion partners are left off. A change or cut given only in a name is not applied to a line headed by its entry. Residues count along the entry.
UniProt O60563, 210-580, stated change not applied: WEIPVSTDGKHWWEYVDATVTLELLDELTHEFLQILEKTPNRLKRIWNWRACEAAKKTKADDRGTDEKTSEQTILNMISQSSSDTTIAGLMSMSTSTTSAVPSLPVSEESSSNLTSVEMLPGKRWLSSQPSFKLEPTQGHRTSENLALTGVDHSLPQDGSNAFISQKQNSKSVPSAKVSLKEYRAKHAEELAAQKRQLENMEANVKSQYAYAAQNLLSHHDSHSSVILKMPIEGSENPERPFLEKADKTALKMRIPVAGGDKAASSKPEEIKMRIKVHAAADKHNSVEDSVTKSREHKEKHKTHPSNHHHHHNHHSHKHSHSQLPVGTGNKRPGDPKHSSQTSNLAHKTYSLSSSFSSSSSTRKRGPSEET
UniProt O60563, 260-580, stated change not applied: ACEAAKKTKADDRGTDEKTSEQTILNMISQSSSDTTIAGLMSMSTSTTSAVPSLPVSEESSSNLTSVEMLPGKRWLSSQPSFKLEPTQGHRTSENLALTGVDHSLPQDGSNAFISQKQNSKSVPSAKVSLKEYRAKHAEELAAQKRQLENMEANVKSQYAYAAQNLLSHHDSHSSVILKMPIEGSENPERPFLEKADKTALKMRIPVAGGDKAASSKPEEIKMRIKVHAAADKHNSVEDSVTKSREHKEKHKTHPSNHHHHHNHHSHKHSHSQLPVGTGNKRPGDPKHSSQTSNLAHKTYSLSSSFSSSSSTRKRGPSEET
UniProt O60563, 430-726, stated change not applied: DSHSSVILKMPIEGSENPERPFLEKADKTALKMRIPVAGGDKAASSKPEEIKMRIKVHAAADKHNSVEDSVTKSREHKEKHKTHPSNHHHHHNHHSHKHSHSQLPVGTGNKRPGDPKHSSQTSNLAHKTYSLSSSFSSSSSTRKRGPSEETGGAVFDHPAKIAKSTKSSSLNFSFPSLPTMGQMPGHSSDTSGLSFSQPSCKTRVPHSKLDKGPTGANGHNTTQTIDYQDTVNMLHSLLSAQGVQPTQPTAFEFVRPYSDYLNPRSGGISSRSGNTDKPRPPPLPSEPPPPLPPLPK

Results are given in words; binding and its absence hold for the method and conditions named. Binding seen in cells or lysates may run through a third protein. Some binding calls cover weakened binding; strength is not graded here.

Common to all, as to experiment: co-IP
The target in assay [1] is mutant CycT1(430-726) (UniProt O60563).
The target of assay [2] is mutant CycT1(260-580) (UniProt O60563).
Assay [3] has as its target mutant CycT1(210-580) (UniProt O60563).

B1: WT Siah2 (enzyme, UniProt O43255 1-324)
chain: MSRPSSTGPSANKPCSKQPPPQPQHTPSPAAPPAAATISAAGPGSSAVPAAAAVISGPGGGGGAGPVSPQHHELTSLFECPVCFDYVLPPILQCQAGHLVCNQCRQKLSCCPTCRGALTPSIRNLAMEKVASAVLFPCKYATTGCSLTLHHTEKPEHEDICEYRPYSCPCPGASCKWQGSLEAVMSHLMHAHKSITTLQGEDIVFLATDINLPGAVDWVMMQSCFGHHFMLVLEKQEKYEGHQQFFAIVLLIGTRKQAENFAYRLELNGNRRRLTWEATPRSIHDGVAAAIMNSDCLVFDTAIAHLFADNGNLGINVTISTCCP
Consider B1, for which the binding entry in assay [1] is “no binding”; in assay [2], “no binding”; in assay [3] it was “binds”.

B2: DN Siah1C75S (enzyme, UniProt Q8IUQ4 1-282)
chain: MSRQTATALPTGTSKCPPSQRVPALTGTTASNNDLASLFECPVCFDYVLPPILQCQSGHLVCSNCRPKLTCCPTSRGPLGSIRNLAMEKVANSVLFPCKYASSGCEITLPHTEKADHEELCEFRPYSCPCPGASCKWQGSLDAVMPHLMHQHKSITTLQGEDIVFLATDINLPGAVDWVMMQSCFGFHFMLVLEKQEKYDGHQQFFAIVQLIGTRKQAENFAYRLELNGHRRRLTWEATPRSIHEGIATAIMNSDCLVFDTSIAQLFAENGNLGINVTISMC
For the molecule B2, the binding result in assay [1] is on record as “no binding”; in assay [2], “no binding”; in assay [3], “binds”.
